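293T-iDUX4 dual-reporter cells; luminescence of the tet-on Italica luciferase control is read after 24 h.
The test concentration is not given here.
Percent change in the Italica control signal; more negative values mean stronger inhibition, which points to nonspecific, tet-on or cytotoxic effects.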

Values are in %.
Common to all entries: measured here: Italica tet-on control reporter.
Part of the compounds only, not a random draw; the main read-out is not listed here.

SMILES	activity change (%)
C/C=C/c1ccc([C@@H]2[C@@H](CO)N(CC3CCCC3)C23CN(S(=O)(=O)CC)C3)cc1	-7.289
CC(C)CC#Cc1ccc([C@@H]2[C@@H](CO)N3CCCCN(C(=O)NC4CCCC4)C[C@H]23)cc1	-23.56
C[C@H]1CN([C@@H](C)CO)C(=O)c2c(c3ccccc3n2C)-c2ccccc2CO[C@@H]1CN(C)C(=O)NC1CCCCC1	-43.77
CCCNC(=O)N1C[C@@H]2N[C@H](C1)C2c1ccc(-c2cccc(OC)c2)cc1 (stereo not given in full)	-15.15
COc1cccc(NC(=O)N[C@@H]2C=C[C@H](CC(=O)Nc3ccc(-c4ccccc4)cc3)O[C@@H]2CO)c1	-46.63
O=C(CC1CC1)N1CC(=O)N2[C@H](C1)[C@@H](c1ccc(C#Cc3ccccc3)cc1)[C@@H]2CO	-25.85
N#C[C@@H]1[C@H](c2ccccc2-c2ccc(F)cc2)[C@@H](CO)N1c1ncc(-c2ccccc2)s1	-30.3
O=C(C1CC1)N1CC[C@@H]2[C@H]1c1cc(-c3ccc(F)cc3)ccc1N[C@@H]2CO	-20.52
COc1ccc2c3c([nH]c2c1)[C@@H](CO)N(C(=O)c1ccc(F)cc1)CC31CCN(S(=O)(=O)c2cccs2)CC1	-16.47
O=C(Nc1nccs1)[C@@H]1[C@@H](CO)[C@@H]2Cn3c(ccc(-c4cccnc4)c3=O)[C@@H]2N1CC1CCCC1	-11.23
CCC(=O)N1CC(=O)N2[C@H](C1)[C@@H](c1ccc(-c3ccccc3F)cc1)[C@@H]2CO	-24.79
COCC(=O)Nc1ccc2c(c1)C(=O)N(C)C[C@H](OC)[C@@H](C)CN(CC1CCCCC1)[C@H](C)CO2	-5.023
O=C(C[C@@H]1CC[C@H]2[C@@H](COC[C@@H](O)CN2CCC(F)(F)F)O1)NCc1ccc(Oc2ccccc2)cc1	-25.58
O=C(C[C@H]1C[C@H]2c3cc(NC(=O)C4CCC4)ccc3O[C@H]2[C@@H](CO)O1)NCCc1ccccc1	-11.06
Cc1ccc(-c2ccccc2[C@@H]2[C@@H](C#N)N(C(=O)NC3CCCC3)[C@H]2CO)cc1	-23.73
N#Cc1cccc(-c2ccc([C@@H]3[C@H]4CN(Cc5ccccc5F)CCCCN4[C@H]3CO)cc2)c1	-7.177
O=C(NC1CCC1)[C@H]1[C@H](CO)[C@H]2Cn3c(ccc(/C=C/c4ccccc4)c3=O)[C@H]2N1Cc1ccncc1	-12.51
CCC(=O)N1CC2(C1)CN(Cc1ccccc1Cl)[C@@H](CO)c1[nH]c3cc(OC)ccc3c12	-66.7
OC[C@@H]1Nc2ccc(-c3ccc(F)cc3)cc2[C@@H]2[C@H]1CCN2Cc1ccc(F)cc1	-3.675
O=C(c1ccccn1)N1CC(=O)N2[C@@H](CO)[C@H](c3ccc(C#CC4CCCC4)cc3)[C@@H]2C1	-7.151
COc1ccc(S(=O)(=O)N(C)C[C@@H]2OCc3ccccc3-c3c(n(C)c4ccccc34)C(=O)N([C@H](C)CO)C[C@@H]2C)cc1	-39.59
C[C@H](CO)N1C[C@H](C)[C@@H](CN(C)S(=O)(=O)c2ccc(C(F)(F)F)cc2)OCc2ccccc2-c2ccccc2C1=O	-10.41
C[C@H]1CN([C@@H](C)CO)C(=O)c2c(c3ccccc3n2C)-c2ccccc2CO[C@@H]1CN(C)CC1CCCCC1	-67.76
O=C(Nc1ccc2c(c1)[C@@H]1C[C@@H](CC(=O)N3CCc4ccccc4C3)O[C@@H](CO)[C@@H]1O2)c1cccnc1	-6.583
O=C(C[C@@H]1CC[C@H]2[C@@H](COC[C@@H](O)CN2Cc2cc(F)ccc2F)O1)N[C@H]1CCN(Cc2ccccc2)C1	-12.86
CCCNC(=O)N1CC2(CCN(C(=O)C3CCCCC3)CC2)c2c([nH]c3cc(OC)ccc23)[C@@H]1CO	-18.89
Cc1cccc(S(=O)(=O)N(C)C[C@H]2OCc3ccccc3-c3c(n(C)c4ccccc34)C(=O)N([C@@H](C)CO)C[C@H]2C)c1	-34.64
COc1ccccc1S(=O)(=O)N(C)C[C@H]1OCc2ccccc2-c2c(n(C)c3ccccc23)C(=O)N([C@H](C)CO)C[C@H]1C	-36.52
C[C@H](CO)N1C[C@H](C)[C@@H](CN(C)Cc2ccccc2C(F)(F)F)OCc2cnnn2CCCC1=O	-9.873
C[C@H](CO)N1C[C@H](C)[C@@H](CN(C)S(=O)(=O)c2cn(C)cn2)OCc2ccccc2-c2c(n(C)c3ccccc23)C1=O	-2.745
COC(=O)[C@@H]1[C@@H](CO)[C@@H]2Cn3c(ccc(C4=CCCCC4)c3=O)[C@H]1N2CCc1ccccc1	-0.3479
O=C(C[C@H]1CC[C@@H]2[C@H](COC[C@H](O)CN2Cc2cccc(C(F)(F)F)c2)O1)NCc1ccc(F)cc1	-23.87
CC(=O)N1CC2(C1)[C@@H](c1ccc(-c3cccc(F)c3)cc1)[C@@H](CO)N2CC1CCCC1	-14.49
Cc1ccccc1S(=O)(=O)N(C)C[C@H]1OCc2ccccc2-c2c(n(C)c3ccccc23)C(=O)N([C@@H](C)CO)C[C@@H]1C	-6.023
CN(C)C(=O)c1cccc(-c2ccc3c(c2)[C@H]2[C@H](CCN2C(=O)Cc2ccccc2)[C@@H](CO)N3)c1	-14.98
COc1ccccc1-c1ccc([C@@H]2[C@H](CO)N3CCCCN(Cc4ccncc4)C[C@@H]23)cc1	-3.237
CCCN1[C@H](C(=O)N[C@H](C)c2ccccc2)[C@@H](CO)[C@@H]2Cn3c(ccc(-c4ccc(F)cc4)c3=O)[C@@H]21	-5.361
C[C@@H]1CN([C@@H](C)CO)C(=O)CCCn2nncc2CO[C@@H]1CN(C)Cc1ccc(C(F)(F)F)cc1	1.604
Cc1ccccc1S(=O)(=O)N1CC[C@@H]2[C@@H](CO)Nc3ccc(-c4ccc(C#N)cc4)cc3[C@@H]21	-55.8
O=C(CC1CC1)N1CC(=O)N2[C@H](C1)[C@@H](c1ccc(C#Cc3cccc(F)c3)cc1)[C@@H]2CO	-29.86
O=C(C[C@H]1CC[C@H]2[C@@H](COC[C@@H](O)CN2Cc2ccc(Oc3ccccc3)cc2)O1)Nc1nccs1	-20.03
Cc1ccc(S(=O)(=O)N2CC[C@@H]3[C@H]2c2cc(-c4ccc(C#N)cc4)ccc2N(C)[C@H]3CO)cc1	-26.7
O=C(c1cccnc1)N1CC[C@@H]2[C@H](CO)Nc3ccc(-c4ccc(F)cc4)cc3[C@@H]21	-11.33
O=C(Nc1ccc(F)cc1)N1C[C@@H]2N[C@H](C1)C2c1ccc(/C=C/c2ccccc2)cc1 (stereo not given in full)	-17.17
COc1ccccc1NC(=O)N1C[C@@H]2N[C@H](C1)C2c1ccc(/C=C/c2ccccc2)cc1 (stereo not given in full)	-13.22
COc1ccc2c3c(n(C)c2c1)[C@H](CO)N(Cc1ccc(Cl)cc1)CC31CCN(C(=O)NC(C)C)CC1	-20.48
COc1ccccc1CN(C)C[C@@H]1OCc2ccccc2-c2c(n(C)c3ccccc23)C(=O)N([C@@H](C)CO)C[C@H]1C	-0.2542
COc1ccc2c3c([nH]c2c1)[C@@H](CO)N(C(=O)Nc1ccc(F)cc1)CC31CN(S(=O)(=O)c2cccs2)C1	-38.57
COc1ccccc1NC(=O)N1C[C@@H](O)COC[C@H]2O[C@H](CC(=O)N3CCC(Cc4ccccc4)CC3)CC[C@@H]21	-9.105
O=C(Nc1cc(F)ccc1F)N1CCCCN2[C@@H](CO)[C@@H](c3ccc(C4=CCCCC4)cc3)[C@@H]2C1	-50.96
COc1ccc(S(=O)(=O)N2CC[C@H]3[C@H](CO)Nc4ccc(C#Cc5cccnc5)cc4[C@H]32)cc1	-14.26
CCCNC(=O)N1CC2(CN(Cc3ccc(OC)cc3)C2)c2c(n(C)c3cc(OC)ccc23)[C@H]1CO	-8.823
C[C@@H]1CN([C@@H](C)CO)C(=O)CCCn2nncc2CO[C@@H]1CN(C)C(=O)Oc1cccc2ccccc12	-1.745
OC[C@@H]1[C@@H](c2ccc(C#Cc3ccccc3)cc2)[C@H]2CN(CC3CCOCC3)CCCCN12	-3.793
Cc1ccc(-c2ccc([C@@H]3[C@H](CO)N4C(=O)CN(C(=O)c5ccncc5)C[C@@H]34)cc2)cc1	-10.09
O=C(C[C@@H]1CC[C@@H]2[C@H](COC[C@@H](O)CN2Cc2ccc(Oc3ccccc3)cc2)O1)N1CCN(c2ccccc2)CC1	-42.98
COc1ccccc1CNC(=O)C[C@@H]1CC[C@@H]2[C@H](COC[C@@H](O)CN2Cc2cccc(-c3ccncc3)c2)O1	-55.76
O=C(C[C@H]1CC[C@H]2[C@@H](COC[C@@H](O)CN2Cc2cccc(-c3ccncc3)c2)O1)N1CCN(c2ccccc2)CC1	-72.25
COc1ccc2c3c([nH]c2c1)[C@@H](CO)N(C(C)=O)CC31CN(Cc2ccccc2Cl)C1	-13.32
O=C(c1ccc(F)cc1)N1CC[C@@H]2[C@@H](CO)Nc3ccc(-c4ccccc4F)cc3[C@@H]21	-13.35
CCC(=O)N1CC2(CCN(Cc3ccc(Cl)cc3)CC2)c2c([nH]c3cc(OC)ccc23)[C@H]1CO	-65.24

7 of the entries, repeated:

With CCC(=O)N1CC2(C1)CN(Cc1ccccc1Cl)[C@@H](CO)c1[nH]c3cc(OC)ccc3c12 the assay gave activity change -66.7%.
With COc1cccc(NC(=O)N[C@@H]2C=C[C@H](CC(=O)Nc3ccc(-c4ccccc4)cc3)O[C@@H]2CO)c1 the assay gave activity change -46.63%.
With C[C@H]1CN([C@@H](C)CO)C(=O)c2c(c3ccccc3n2C)-c2ccccc2CO[C@@H]1CN(C)C(=O)NC1CCCCC1 the assay gave activity change -43.77%.
With COc1ccc(S(=O)(=O)N(C)C[C@@H]2OCc3ccccc3-c3c(n(C)c4ccccc34)C(=O)N([C@H](C)CO)C[C@@H]2C)cc1 the assay gave activity change -39.59%.
With COCC(=O)Nc1ccc2c(c1)C(=O)N(C)C[C@H](OC)[C@@H](C)CN(CC1CCCCC1)[C@H](C)CO2 the assay gave activity change -5.023%.
With C[C@H](CO)N1C[C@H](C)[C@@H](CN(C)S(=O)(=O)c2cn(C)cn2)OCc2ccccc2-c2c(n(C)c3ccccc23)C1=O the assay gave activity change -2.745%.
With O=C(c1ccc(F)cc1)N1CC[C@@H]2[C@@H](CO)Nc3ccc(-c4ccccc4F)cc3[C@@H]21 the assay gave activity change -13.35%.

The results are deposited in PubChem (AID1224904; Broad Institute, 2016).